Reference: article doi:10.1101/2021.11.05.467472 (bioRxiv, 2021)
No constants are given. Whether binding was seen depends on the method and setting. For some of these results: Where a sequence is shown, tags or fusion partners need not be part of it.

Columns and labels:
Test in all cases: BLI
[1] = biological target: T1, SUMO-S4B (CsoS4B shell protein, SUMO fusion) (H. neapolitanus) (UniProt O85044)
T1 sequence: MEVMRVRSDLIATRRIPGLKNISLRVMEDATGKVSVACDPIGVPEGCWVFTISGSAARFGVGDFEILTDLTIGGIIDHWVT

[2] = biological target: SUMO-S1D (CsoS1D shell protein, SUMO fusion) (H. neapolitanus) (UniProt D0KZ73)
[3] = biological target: T2, SUMO-S1B (CsoS1B shell protein, SUMO fusion) (H. neapolitanus) (UniProt P45690)
T2 sequence: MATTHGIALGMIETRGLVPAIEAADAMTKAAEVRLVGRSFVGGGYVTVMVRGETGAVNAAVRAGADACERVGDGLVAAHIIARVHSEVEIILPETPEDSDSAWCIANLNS

[4] = biological target: Rubisco with terminal His-tag (bait of the BLI binding screen) (H. neapolitanus) (UniProt O85040)

Question: With “untagged CsoSCA (carboxysomal carbonic anhydrase, full length) (from UniProt O85042 1-514) (enzyme)” as the substance, how does the binding [1] read?
Answer: no binding (tested: 1 μM)

Question: And the binding [2]?
Answer: no binding (tested: 1 μM)

Question: What about the binding [3] of the same substance?
Answer: no binding (tested: 1 μM)

Question: For “ΔNTD_(1-37)CsoSCA (from UniProt O85042 38-514) (domain or fragment)”, which binding [4] is on record?
Answer: no binding
